Results as given in article PMC9977887, “Crocodile defensin (CpoBD13) antifungal activity via pH-dependent phospholipid targeting and membrane disruption” (Nature Communications, 2023).

Assay: Chemical crosslinking with BS(PEG)5 in the presence of PA
Conditions: SDS-PAGE

## CpoBD13: saltwater crocodile β-defensin 13, histidine-rich, three disulphide bonds, recombinantly expressed in Pichia pastoris (NGSYYSTLQCRNNHGHCRRLCFHGEQWIGNCNGRHQHCCK)
0 and 23 µM PA
  oligomeric state after crosslinking: clear dimers
115 µM PA
  oligomeric state after crosslinking: multimeric complexes up to the size of pentamers
